{
  "source": "paper PMC2223503",
  "test_system": "receptors for cholecystokinin (CCK)",
  "experiment": "storage phosphor autoradiography, binding of [125I]BH-CCK-8 to human pancreatic tissue sections",
  "details": "result in words",
  "data": [
    {"substance": "['251]BH-CCK-8: radioligand, specific activity 2200 Ci mmol-1, purchased from New England Nuclear", "values": [
      {"measurement": "specific binding to tumour-free human pancreata", "value": "diffusely distributed through the tissue sections of tumour-free pancreata"}
    ]}
  ]
}
